Changes are numbered by the printed parent chain. Numbers in names are those of the source. These are yes or no findings as the source states them, for the method shown.

Assay [1] deals with T1, murine RANK (receptor) (murine, UniProt O35305 31-214, limits assumed).
T1 construct: Control surface in the SPR screening
T1 sequence (looked up): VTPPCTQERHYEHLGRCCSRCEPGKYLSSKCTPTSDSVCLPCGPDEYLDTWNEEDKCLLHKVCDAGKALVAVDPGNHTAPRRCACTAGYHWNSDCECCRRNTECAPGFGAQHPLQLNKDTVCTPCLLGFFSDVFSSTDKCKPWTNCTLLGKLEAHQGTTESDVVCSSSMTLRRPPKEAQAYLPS
In words: condition: extract diluted 1:50, concentration not given; SPR (Biacore): clarified E. coli extract diluted 1:50 injected over immobilised DR4, DR5, DcR1 and RANK; bars are the response as a fraction of the DR5 response.

Assay [2] deals with T1, murine RANK (receptor). Briefly: condition: extract diluted 1:50, concentration not given; SPR (Biacore): clarified E. coli extract diluted 1:50 injected over immobilised DR4, DR5, DcR1 and RANK; bars are the response as a fraction of the DR4 response.

B1: TRAIL mutant D269H (ligand)
chain: VRERGPQRVAAHITGTRGRSNTLSSPNSKNEKALGRKINSWESSRSGHSFLSNLHLRNGELVIHEKGFYYIYSQTYFRFQEEIKENTKNDKQMVQYIYKYTSYPDPILLMKSARNSCWSKDAEYGLYSIYQGGIFELKENDRIFVSVTNEHLIDMHHEASFFGAFLVG
On to B1, for which the binding result with murine RANK (receptor) [1] and with murine RANK (receptor) [2] was “no binding” each time.

B2: TRAIL mutant R149D (ligand)
chain: B1 chain with R36D, H156D
On to B2, for which the binding entry with murine RANK (receptor) [1] and with murine RANK (receptor) [2] was “no binding” each time.

B3: TRAIL mutant R149H (ligand)
chain: B1 chain with R36H, H156D
For the molecule B3, the binding entry in the assay with murine RANK (receptor) [1] and with murine RANK (receptor) [2] was “no binding” throughout.

B4: TRAIL mutant I220M (ligand)
chain: B1 chain with I107M, H156D
For the molecule B4, the binding result in the assay with murine RANK (receptor) [1] and with murine RANK (receptor) [2] was “no binding” in each case.

The values are drawn from patent publication US7994281 (EUROPEAN MOLECULAR BIOLOGY LABORATORY, dated 2011).
